Laboratory results as given in PubChem BioAssay AID504834 (National Center for Advancing Translational Sciences (NCATS), 2011).
Among all 320,000 compounds or so, about 22,000 (6.9%) were called active. Inconclusive results, whose numbers are uncertain, are shown with a selection of clear calls. Calls come from the whole dose curve; as a rule, active = well fitted inhibition curve with a large enough effect; inconclusive = small, poorly fitted or top-dose-only effect, or another doubt; inactive = no such curve, though single readings can be large or run the other way. A potency beside an inconclusive call is a rough fit, not a confirmed value.

assay: Primary qHTS for delayed death inhibitors of the malarial parasite plastid, 96 hour incubation; settings: P. falciparum luciferase reporter growth; series mostly up to 28.7 µM; activity change, negative = inhibition: at the top concentration
Summary of the method: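 96 h incubation, 37 C, 5% CO2, of luciferase-reporter P. falciparum-infected RBCs (2% hematocrit, 0.05% parasitemia final) with test compounds; endpoint luminescence.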
% is set by controls: 0 for no effect and ±100 for the full control effect; potency is the fitted concentration of half-maximal effect.

SMILES | Potency | activity change, negative = inhibition
CCNC(=O)/C(C#N)=C/c1c(N2CCCCCC2)nc2ccccn2c1=O | inconclusive: 9.28 µM [inhibitor, single point] | –
COc1ccccc1CN1CC(C(=O)NCCCc2ccc(F)cc2)CCC1=O (centres undefined) | inconclusive: 0.0329 µM [inhibitor, full curve, poor fit] | –
CCOC(=O)C1SC2(C(F)(F)F)CC1(O)c1c(C)cc(C)nc1O2 (centres undefined) | inconclusive: 3.29 µM [inhibitor, partial curve, poor fit] | –
COc1ccc(C(=O)N2CC(=O)Nc3ccc(F)cc3C2c2ccccc2)cc1 (centres undefined) | inconclusive: 11.7 µM [inhibitor, single point] | –
Cc1cccc(C)c1NC(=O)CN(C)C(=O)CC1Sc2ccccc2NC1=O (centres undefined) | – | inactive: -8.22%
COC(=O)c1cc2oc3ccccc3c2n1Cc1ccccn1 | inconclusive: 11.7 µM [inhibitor, single point] | –
Cc1ccc(-c2nn3c(C)nnc3c3ccccc23)cc1S(=O)(=O)NC(C)(C)CO | inconclusive: 4.15 µM [inhibitor, full curve, poor fit] | –
COc1ccc(-c2nnc(SCC(=O)O)n2Cc2ccccc2)cc1 | active: 7.38 µM | –
Cc1cc(C)cc(C(=O)NCC(=O)OCC(=O)NCC(F)(F)F)c1 | – | inactive: 28.7%
O=C(Nc1nc(-c2ccco2)c(-c2ccco2)s1)c1cnccn1 | inconclusive: 18.5 µM [inhibitor, single point] | –
Cc1cccc(C)c1OCC(=O)N/N=C/c1cc2c(cc1[N+](=O)[O-])OCO2 | inconclusive: 18.5 µM [inhibitor, single point] | –
CC1=NN(c2ccc(S(=O)(=O)O)cc2Cl)C(=O)C1 | inconclusive: 10.4 µM [inhibitor, single point] | –
O=C(O)c1c2c(nc3ccc(S(=O)(=O)N4CCC(C(=O)NC5CCCCCC5)CC4)cc13)CCCC2 | inconclusive: 3.7 µM [inhibitor, single point] | –
CC1CCCN(C(=O)C2CCN(S(=O)(=O)c3cccc4nsnc34)CC2)C1 (centres undefined) | inconclusive: 18.5 µM [inhibitor, single point] | –
Cc1ccc(C(C(=O)NC2CCCCC2)N(Cc2ccco2)C(=O)Cn2cnc3ccccc32)cc1 (centres undefined) | – | inactive: -7.82%
COC(=O)/C=C1\SC(N)=NC1=O | inconclusive: 4.65 µM [inhibitor, partial curve] | –
O=C(COC(=O)C1=COCCO1)Nc1cccc(S(=O)(=O)N2CCOCC2)c1 | inconclusive: 8.28 µM [inhibitor, partial curve] | –
CNn1cnc2ccsc2c1=O | – | inactive: -24.9%
Cc1noc(C)c1COc1ccccc1C(=O)NCCc1ccccc1 | inconclusive: 9.28 µM [inhibitor, partial curve, poor fit] | –
Cc1[nH]c2ccccc2c1SCc1n[nH]c(=S)n1C | – | inactive: 0.133%
COc1cc(NC(=O)C2=C(C)OCCS2)c(Cl)cc1C(=O)NCCN(C)C | inconclusive: 1.65 µM [inhibitor, partial curve, poor fit] | –
Cc1ccc(NC(=O)Nc2cccc([N+](=O)[O-])c2)nc1 | inconclusive: 11.7 µM [inhibitor, partial curve, poor fit] | –
Cc1cccc(-n2c(SCC(=O)c3c(N)n(C4CC4)c(=O)[nH]c3=O)nnc2N2CCOCC2)c1 | active: 5.22 µM | –

SMILES | Potency | activity change, negative = inhibition
CCOc1cccc(/C(O)=C2/C(=O)C(=O)N(CCOC)C2c2ccco2)c1 (centres undefined) | – | inactive: 14.7%
CCOc1ccc(C(CCc2ccccc2)NC(=O)c2ccc(OC)c(OC)c2)cc1OCC (centres undefined) | active: 0.233 µM | –
CC1CCCC(C)N1C(=O)CCN1C(=O)C2C3C=CC(C3)C2C1=O (centres undefined) | active: 1.65 µM | –
CS(=O)(=O)c1ccccc1C(=O)N1CCN(S(=O)(=O)c2ccc(C3CCCCC3)cc2)CC1 | inconclusive: 10.4 µM [inhibitor, single point] | –
CCOC(=O)Cc1cc(=O)[nH]c(Nc2nc3ccccc3o2)n1 | inconclusive: 14.7 µM [inhibitor, partial curve, poor fit] | –
C=CCc1ccc(OCC(O)CN2CCN(c3ccccc3)CC2)c(OC)c1 (centres undefined) | inconclusive: 2.62 µM [inhibitor, partial curve, poor fit] | –
CS(=O)(=O)c1ccc(C(=O)Nc2cccc(-c3nc4ccccc4[nH]3)c2)cc1 | inconclusive: 11.7 µM [inhibitor, partial curve] | –
COc1ccccc1/C=C/C(=O)NC(=S)NCC1CCCO1 (centres undefined) | inconclusive: 11.7 µM [inhibitor, single point] | –
CCn1cc(CCC(=O)NCc2ccc(F)cc2)c2ccccc21 | inconclusive: 0.0738 µM [inhibitor, full curve, poor fit] | –
Cc1ccc(SC[C@H](Cc2ccccc2)N2CCN(CC(C)C)CCC2=O)cc1 | inconclusive: 18.5 µM [inhibitor, single point] | –
CC(C)Oc1cccc(C(=O)N/N=C/c2coc3ccccc3c2=O)c1 | inconclusive: 18.5 µM [inhibitor, single point] | –
COc1ccc(-n2c(=O)cc(N3CCCCCC3)[nH]c2=O)cc1 | – | inactive: 53.7%
CCOc1ccc(N2CC(C(=O)Nc3ccccc3OC)CC2=O)cc1 (centres undefined) | inconclusive: 9.28 µM [inhibitor, partial curve, poor fit] | –
COc1ccc(N2C(=O)CCC(C(=O)O)C2c2ccccc2OC)cc1 (centres undefined) | inconclusive: 18.5 µM [inhibitor, single point] | –
COc1ccc(C2(CNC(=O)Cc3ccc(OC)c(OC)c3)CCOCC2)cc1 | inconclusive: 0.37 µM [inhibitor, partial curve, poor fit] | –
COc1ccccc1-c1cc(C(F)(F)F)nc(N2CCN(c3ccccc3)CC2)n1 | inconclusive: 0.415 µM [inhibitor, partial curve, poor fit] | –
CCn1nc(C)c(C2C(C#N)=C(N)OC3=C2C(=O)CC(C)(C)C3)c1C (centres undefined) | inconclusive: 0.657 µM [inhibitor, partial curve, poor fit] | –
C/C(=N\NC(N)=S)c1ccc(-n2ccnc2)cc1 | inconclusive: 6.57 µM [inhibitor, partial curve] | –
CS(=O)(=O)c1ccc(NC(=O)c2ccc3c(c2)S(=O)(=O)N=C2CCCCCN23)cc1 | inconclusive: 9.28 µM [inhibitor, partial curve, poor fit] | –
CCC1CCCCN1CC(=O)c1c(C)[nH]c2cc(C)ccc12 (centres undefined) | – | inactive: 4.81%
c1coc(CN2CNc3nc4ccccc4n3C2)c1 | – | inactive: -2.75%
CNC[C@@H](CC1CCCCC1)NC[C@H](CC(C)C)NCCc1cccc(C(F)(F)F)c1 | active: 1.85 µM | –
Fc1cccc(Cl)c1CSc1ccc(-c2cccnc2)nn1 | inconclusive: 18.5 µM [inhibitor, single point] | –

As a short view, some entries already given:
SMILES | Potency | activity change, negative = inhibition
C/C(=N\NC(N)=S)c1ccc(-n2ccnc2)cc1 | inconclusive: 6.57 µM [inhibitor, partial curve] | –
CS(=O)(=O)c1ccc(NC(=O)c2ccc3c(c2)S(=O)(=O)N=C2CCCCCN23)cc1 | inconclusive: 9.28 µM [inhibitor, partial curve, poor fit] | –
CCC1CCCCN1CC(=O)c1c(C)[nH]c2cc(C)ccc12 (centres undefined) | – | inactive: 4.81%
c1coc(CN2CNc3nc4ccccc4n3C2)c1 | – | inactive: -2.75%
CNC[C@@H](CC1CCCCC1)NC[C@H](CC(C)C)NCCc1cccc(C(F)(F)F)c1 | active: 1.85 µM | –

Next compounds follow.

SMILES | Potency | activity change, negative = inhibition
Clc1nc(Cl)nc(-c2cn(-c3ccccc3)c3ccccc23)n1 | – | inactive: -4.13%
Cn1cccc1Cc1nnc(SCC(=O)Nc2ccc(F)cc2F)n1-c1ccc(F)cc1 | – | inactive: 45.3%
Cc1nn(Cc2ccc(Cl)cc2)c2sc(C(=O)OCC(N)=O)cc12 | inconclusive: 13.1 µM [inhibitor, single point] | –
Cc1ccc(OCCN2CCN(C(=O)CCC(=O)Nc3nnc(C)s3)CC2)cc1 | inconclusive: 2.62 µM [inhibitor, single point] | –
CC(C)OC(=O)CSc1nnnn1-c1ccc2c(c1)OCCO2 | inconclusive: 0.104 µM [inhibitor, full curve] | –
O=C(NC(=S)NCc1cccnc1)c1cccc2ccccc12 | inconclusive: 13.1 µM [inhibitor, single point] | –
COc1ccc(CNC(=O)c2cc(C)nn2-c2ccccc2)cc1 | – | inactive: 3.42%
O=C(Nc1nc(=O)[nH]s1)c1ccccc1 | – | inactive: -20.1%
CSc1ccc(S(=O)(=O)NC2CC2)cc1 | inconclusive: 18.5 µM [inhibitor, single point] | –
COc1ccccc1C(=O)NCCC(=O)Nc1ccc(S(=O)(=O)N2C(C)CCCC2C)cc1 (centres undefined) | inconclusive: 1.47 µM [inhibitor, full curve] | –
CCOC(=O)c1sc2ncn(C(CC)C(=O)OCC)c(=O)c2c1C (centres undefined) | – | inactive: 2.47%
COc1ccc(-c2onc3ccc(Cl)cc23)cc1 | inconclusive: 0.0586 µM [inhibitor, full curve, poor fit] | –
Cc1noc(C)c1COC(=O)c1ccc(F)c(S(=O)(=O)N2CCCCC2)c1 | – | inactive: -26.9%
Cc1ccccc1C(=O)NC1CCN(CC(=O)N2CCCCC2C)CC1 (centres undefined) | – | inactive: -16.4%
O=C(c1cc(COc2ccc3ncccc3c2)on1)N1CCC(O)CC1 | – | inactive: 203%
COc1ccc(CCC(=O)NC(C)C2CCCO2)cc1 (centres undefined) | inconclusive: 18.5 µM [inhibitor, single point] | –
COc1cc(OC)c(NC(=O)[C@@H]2CCC(=O)N2C2OC(=O)c3c2ccc(OC)c3OC)cc1Cl (some centres undefined) | inconclusive: 14.7 µM [inhibitor, single point] | –
CCCc1cc(=O)[nH]c(SCC(=O)N(CC)c2c(N)n(Cc3ccccc3)c(=O)[nH]c2=O)n1 | – | inactive: 17.9%
Cc1ccc(-c2cnc(NC(=O)CCC(=O)N3CCCCC3)n2C)cc1 | active: 11.7 µM | –
CCN(CCCNC(=O)CCCn1c(=O)[nH]c2ccccc2c1=O)c1cccc(C)c1 | inconclusive: 7.38 µM [inhibitor, partial curve, poor fit] | –
Cn1c(C(=O)N2CCN(c3ccccn3)CC2)cc2ccccc21 | inconclusive: 10.4 µM [inhibitor, single point] | –
CCOc1cccc(NC(=O)C2CC(=O)N(c3ccc(F)cc3)C2)c1 (centres undefined) | inconclusive: 3.29 µM [inhibitor, full curve, poor fit] | –
CCS(=O)(=O)N1CCC(C(=O)NCCCN2CCC(Cc3ccccc3)CC2)CC1 | active: 9.28 µM | –
